Source: the supplement of paper PMC10849652
This is one part of the list.

Protein sequences, listed by entry. Tags and fused reporters are not part of them. Lines headed by an entry give the natural chain unless they say otherwise; changes in a name come on top.
UniProt Q8TAK5: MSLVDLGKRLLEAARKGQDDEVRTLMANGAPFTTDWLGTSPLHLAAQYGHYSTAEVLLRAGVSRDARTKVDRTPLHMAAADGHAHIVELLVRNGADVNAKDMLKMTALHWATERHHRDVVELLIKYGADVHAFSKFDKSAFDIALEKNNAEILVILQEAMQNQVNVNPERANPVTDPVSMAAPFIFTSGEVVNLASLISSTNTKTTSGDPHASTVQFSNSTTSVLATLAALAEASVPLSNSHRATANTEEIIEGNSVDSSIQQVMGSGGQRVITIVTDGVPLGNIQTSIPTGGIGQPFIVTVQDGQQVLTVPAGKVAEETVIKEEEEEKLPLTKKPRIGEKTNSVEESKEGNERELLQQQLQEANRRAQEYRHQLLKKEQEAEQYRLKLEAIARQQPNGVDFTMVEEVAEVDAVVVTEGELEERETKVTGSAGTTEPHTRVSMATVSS
UniProt Q9NWZ8: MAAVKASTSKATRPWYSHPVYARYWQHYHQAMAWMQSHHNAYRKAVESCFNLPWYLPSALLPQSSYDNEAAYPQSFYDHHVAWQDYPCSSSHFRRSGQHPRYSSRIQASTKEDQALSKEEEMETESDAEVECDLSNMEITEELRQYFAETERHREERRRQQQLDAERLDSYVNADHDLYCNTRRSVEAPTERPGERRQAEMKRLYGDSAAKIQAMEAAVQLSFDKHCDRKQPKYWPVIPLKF
UniProt P09958, whole entry, looked up: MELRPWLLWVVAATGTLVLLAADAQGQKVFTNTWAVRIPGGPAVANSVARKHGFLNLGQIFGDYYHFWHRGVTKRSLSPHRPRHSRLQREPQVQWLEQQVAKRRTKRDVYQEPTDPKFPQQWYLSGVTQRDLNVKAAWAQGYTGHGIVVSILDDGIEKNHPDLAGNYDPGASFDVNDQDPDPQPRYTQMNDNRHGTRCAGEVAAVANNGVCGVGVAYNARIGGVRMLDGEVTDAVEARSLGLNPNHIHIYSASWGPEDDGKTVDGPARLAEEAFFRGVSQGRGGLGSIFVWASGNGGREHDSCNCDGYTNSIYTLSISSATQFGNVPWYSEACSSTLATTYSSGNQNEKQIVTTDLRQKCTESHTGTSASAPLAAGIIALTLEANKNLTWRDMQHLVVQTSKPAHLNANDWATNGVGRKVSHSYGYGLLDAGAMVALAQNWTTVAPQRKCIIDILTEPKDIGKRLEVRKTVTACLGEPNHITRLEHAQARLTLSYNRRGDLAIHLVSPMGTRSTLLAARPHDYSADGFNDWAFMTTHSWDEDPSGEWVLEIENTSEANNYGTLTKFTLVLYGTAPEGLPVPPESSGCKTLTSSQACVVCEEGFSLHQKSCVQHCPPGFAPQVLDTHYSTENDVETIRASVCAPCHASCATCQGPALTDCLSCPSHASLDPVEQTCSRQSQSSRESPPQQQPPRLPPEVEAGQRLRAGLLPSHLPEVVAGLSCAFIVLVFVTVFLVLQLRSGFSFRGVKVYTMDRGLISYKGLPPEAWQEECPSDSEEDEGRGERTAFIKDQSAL
UniProt Q8NCW6: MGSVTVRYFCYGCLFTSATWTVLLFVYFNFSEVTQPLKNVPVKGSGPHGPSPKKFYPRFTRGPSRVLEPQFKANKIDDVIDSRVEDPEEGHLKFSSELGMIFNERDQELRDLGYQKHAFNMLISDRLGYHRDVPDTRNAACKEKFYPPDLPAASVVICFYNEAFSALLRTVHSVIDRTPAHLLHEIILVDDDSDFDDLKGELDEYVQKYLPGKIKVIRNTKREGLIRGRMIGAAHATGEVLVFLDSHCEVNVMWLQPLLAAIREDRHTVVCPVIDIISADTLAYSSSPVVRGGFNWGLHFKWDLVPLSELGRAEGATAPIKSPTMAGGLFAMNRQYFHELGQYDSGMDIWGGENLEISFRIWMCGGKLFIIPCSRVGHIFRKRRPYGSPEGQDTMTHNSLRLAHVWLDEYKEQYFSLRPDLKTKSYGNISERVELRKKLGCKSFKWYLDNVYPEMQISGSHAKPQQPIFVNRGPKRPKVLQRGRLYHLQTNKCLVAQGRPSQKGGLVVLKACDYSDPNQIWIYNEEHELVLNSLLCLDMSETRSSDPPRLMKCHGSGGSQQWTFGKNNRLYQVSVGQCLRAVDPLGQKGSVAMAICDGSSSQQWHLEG
UniProt Q495W5: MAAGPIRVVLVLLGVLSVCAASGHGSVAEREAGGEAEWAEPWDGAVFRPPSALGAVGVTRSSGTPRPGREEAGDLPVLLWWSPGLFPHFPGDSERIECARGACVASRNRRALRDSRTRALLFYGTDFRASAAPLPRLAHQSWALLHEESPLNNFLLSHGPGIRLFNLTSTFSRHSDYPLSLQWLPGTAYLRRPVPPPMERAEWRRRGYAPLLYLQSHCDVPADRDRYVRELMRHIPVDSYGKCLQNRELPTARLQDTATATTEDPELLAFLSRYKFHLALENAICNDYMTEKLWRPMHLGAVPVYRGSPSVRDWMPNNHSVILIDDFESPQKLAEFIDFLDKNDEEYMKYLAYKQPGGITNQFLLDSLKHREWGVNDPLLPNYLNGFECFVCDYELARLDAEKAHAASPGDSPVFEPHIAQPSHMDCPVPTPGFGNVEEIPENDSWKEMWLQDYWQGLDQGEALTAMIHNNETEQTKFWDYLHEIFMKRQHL
UniProt Q9H840: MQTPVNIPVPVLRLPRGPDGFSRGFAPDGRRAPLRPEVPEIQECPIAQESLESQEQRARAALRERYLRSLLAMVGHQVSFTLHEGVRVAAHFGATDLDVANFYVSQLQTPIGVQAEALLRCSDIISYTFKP
UniProt Q8N4A0: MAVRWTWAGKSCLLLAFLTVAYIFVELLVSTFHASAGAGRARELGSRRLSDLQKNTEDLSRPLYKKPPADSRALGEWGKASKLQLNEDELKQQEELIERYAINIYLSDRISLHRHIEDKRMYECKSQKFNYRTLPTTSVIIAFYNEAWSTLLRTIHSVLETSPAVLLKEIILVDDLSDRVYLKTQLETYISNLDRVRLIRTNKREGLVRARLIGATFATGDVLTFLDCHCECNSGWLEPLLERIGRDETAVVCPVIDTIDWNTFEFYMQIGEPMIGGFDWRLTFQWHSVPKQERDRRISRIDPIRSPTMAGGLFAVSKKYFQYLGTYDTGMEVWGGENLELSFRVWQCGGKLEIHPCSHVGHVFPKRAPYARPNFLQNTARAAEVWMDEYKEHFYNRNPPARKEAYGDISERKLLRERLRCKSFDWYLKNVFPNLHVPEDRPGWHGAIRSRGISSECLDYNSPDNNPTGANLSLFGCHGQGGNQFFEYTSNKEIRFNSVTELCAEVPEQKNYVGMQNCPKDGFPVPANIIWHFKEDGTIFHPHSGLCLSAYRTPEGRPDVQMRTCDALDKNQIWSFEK
UniProt Q8TB36: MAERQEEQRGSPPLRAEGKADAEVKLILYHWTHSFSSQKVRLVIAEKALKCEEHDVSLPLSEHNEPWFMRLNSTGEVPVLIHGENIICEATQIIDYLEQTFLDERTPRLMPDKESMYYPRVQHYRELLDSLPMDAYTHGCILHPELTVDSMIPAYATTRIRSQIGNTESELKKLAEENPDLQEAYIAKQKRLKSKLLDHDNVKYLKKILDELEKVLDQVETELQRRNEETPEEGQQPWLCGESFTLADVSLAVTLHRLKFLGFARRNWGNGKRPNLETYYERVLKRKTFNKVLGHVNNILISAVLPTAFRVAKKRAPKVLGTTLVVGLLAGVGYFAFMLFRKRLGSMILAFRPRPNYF
UniProt Q14435: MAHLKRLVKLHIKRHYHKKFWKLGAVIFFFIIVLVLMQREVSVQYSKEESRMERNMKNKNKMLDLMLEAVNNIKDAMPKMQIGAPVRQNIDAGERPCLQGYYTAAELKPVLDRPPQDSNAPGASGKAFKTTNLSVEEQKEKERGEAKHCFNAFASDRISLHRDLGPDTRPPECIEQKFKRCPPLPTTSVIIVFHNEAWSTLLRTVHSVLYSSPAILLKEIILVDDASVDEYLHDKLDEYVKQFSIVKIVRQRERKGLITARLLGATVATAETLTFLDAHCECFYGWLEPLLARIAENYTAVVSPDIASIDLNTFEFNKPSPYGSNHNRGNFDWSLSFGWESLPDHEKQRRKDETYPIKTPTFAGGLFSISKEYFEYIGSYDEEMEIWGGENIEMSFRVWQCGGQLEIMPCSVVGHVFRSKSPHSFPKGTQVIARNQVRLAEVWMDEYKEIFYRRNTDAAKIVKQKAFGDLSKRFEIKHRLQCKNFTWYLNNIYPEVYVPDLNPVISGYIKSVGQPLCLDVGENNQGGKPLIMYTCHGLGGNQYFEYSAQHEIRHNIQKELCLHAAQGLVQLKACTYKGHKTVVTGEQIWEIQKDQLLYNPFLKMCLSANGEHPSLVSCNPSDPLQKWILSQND
UniProt Q9UN86: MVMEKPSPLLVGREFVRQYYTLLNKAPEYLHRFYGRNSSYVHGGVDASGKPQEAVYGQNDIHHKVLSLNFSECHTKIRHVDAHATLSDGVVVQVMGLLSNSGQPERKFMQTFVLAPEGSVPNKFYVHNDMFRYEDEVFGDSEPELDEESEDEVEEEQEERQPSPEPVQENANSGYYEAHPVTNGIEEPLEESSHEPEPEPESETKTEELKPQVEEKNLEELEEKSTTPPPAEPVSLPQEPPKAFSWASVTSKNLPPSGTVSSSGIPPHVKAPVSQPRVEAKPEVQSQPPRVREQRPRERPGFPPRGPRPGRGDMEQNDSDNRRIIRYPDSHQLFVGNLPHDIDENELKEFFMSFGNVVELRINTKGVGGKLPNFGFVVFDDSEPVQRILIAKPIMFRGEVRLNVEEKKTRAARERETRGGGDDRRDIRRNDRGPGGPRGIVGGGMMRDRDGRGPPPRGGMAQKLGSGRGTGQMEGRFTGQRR
UniProt Q5VTD9: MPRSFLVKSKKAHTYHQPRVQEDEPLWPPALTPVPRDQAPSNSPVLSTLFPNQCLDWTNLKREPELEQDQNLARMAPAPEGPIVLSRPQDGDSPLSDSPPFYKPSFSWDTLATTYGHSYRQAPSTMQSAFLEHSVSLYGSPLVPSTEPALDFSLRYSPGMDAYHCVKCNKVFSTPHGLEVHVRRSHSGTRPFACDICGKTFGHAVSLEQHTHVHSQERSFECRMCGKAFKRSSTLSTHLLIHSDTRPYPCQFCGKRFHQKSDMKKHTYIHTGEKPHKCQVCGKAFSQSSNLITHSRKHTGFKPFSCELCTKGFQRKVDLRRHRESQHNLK
UniProt Q05932: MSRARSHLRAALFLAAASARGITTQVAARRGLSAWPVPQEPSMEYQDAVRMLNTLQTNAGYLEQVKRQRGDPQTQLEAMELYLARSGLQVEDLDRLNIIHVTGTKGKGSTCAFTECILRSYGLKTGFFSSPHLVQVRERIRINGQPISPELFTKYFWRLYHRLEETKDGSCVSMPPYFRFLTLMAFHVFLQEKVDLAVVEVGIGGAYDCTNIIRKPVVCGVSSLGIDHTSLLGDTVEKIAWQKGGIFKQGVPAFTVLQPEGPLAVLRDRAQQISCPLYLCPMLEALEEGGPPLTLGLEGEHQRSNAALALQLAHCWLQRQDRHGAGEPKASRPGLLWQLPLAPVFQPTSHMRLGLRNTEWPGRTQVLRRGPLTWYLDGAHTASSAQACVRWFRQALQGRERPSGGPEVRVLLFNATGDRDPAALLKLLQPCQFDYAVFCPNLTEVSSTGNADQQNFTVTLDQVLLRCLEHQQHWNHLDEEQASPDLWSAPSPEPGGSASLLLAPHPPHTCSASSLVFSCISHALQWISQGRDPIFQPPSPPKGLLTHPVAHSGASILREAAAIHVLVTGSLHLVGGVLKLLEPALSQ
UniProt O14926: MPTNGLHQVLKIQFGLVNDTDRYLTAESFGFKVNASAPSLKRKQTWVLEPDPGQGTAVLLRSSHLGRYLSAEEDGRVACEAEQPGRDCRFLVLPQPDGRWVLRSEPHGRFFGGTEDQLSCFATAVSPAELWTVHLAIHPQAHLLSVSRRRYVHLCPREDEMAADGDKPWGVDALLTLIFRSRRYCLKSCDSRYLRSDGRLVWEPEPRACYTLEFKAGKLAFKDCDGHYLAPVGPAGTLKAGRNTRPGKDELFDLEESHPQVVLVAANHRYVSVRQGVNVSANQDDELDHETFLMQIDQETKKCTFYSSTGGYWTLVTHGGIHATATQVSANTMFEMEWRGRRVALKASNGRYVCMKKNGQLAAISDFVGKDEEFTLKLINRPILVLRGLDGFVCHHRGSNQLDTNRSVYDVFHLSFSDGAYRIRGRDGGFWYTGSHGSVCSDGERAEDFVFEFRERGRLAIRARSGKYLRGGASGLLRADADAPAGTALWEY
UniProt A2VDF0: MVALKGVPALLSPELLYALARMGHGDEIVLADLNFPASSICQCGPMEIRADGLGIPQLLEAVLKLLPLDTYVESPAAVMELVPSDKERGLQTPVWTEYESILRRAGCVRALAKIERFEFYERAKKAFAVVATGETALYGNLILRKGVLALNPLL
UniProt Q8IVP5: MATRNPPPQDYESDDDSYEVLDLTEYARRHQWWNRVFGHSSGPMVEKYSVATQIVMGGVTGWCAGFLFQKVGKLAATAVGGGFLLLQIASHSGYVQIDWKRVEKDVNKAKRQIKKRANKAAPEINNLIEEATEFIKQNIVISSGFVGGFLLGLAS

What was measured:
Assay in all cases: log2 fold change, soluble protein after heating vs DMSO (PISA); higher = thermal stabilisation; K562 lysate, 10 uM; active = over 0.2 and 3.5 SD of the protein, either way, in both replicates (recomputed)
ibrutinib = compound: C=CC(=O)N1CCC[C@@H](n2nc(-c3ccc(Oc4ccccc4)cc3)c3c(N)ncnc32)C1 [ibrutinib]
How it was run: (§1)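 Values give the log-two fold change in thermal stability against solvent controls, from duplicates. Crude K562 extract at 1 mg/mL protein, made by dounce homogenisation in PBS pH 7.4 with 1 mM MgCl2, was treated with 10 μM compound for 30 min. After 3 min heating across 48°C-58°C, aliquots were pooled, adjusted to 0.5% NP-40 at 4°C and centrifuged at 21,000xg for 90 min. The supernatant was measured by TMTpro 16plex LC-MS/MS with channel sums equalised.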

ralimetinib = compound: CC(C)(C)Cn1c(N)nc2ccc(-c3[nH]c(C(C)(C)C)nc3-c3ccc(F)cc3)nc21 [ralimetinib]
How it was run: as §1

[1] = compound: CC(C)(O)CC(=O)NCCn1ccc2ncnc(Nc3ccc(Oc4cccc(C(F)(F)F)c4)c(Cl)c3)c21
How it was run: as §1

[2] = compound: CC1=C(C2=C(C=C1)C(=O)C3=CC=CC=C3N2CCCN)C
How it was run: as §1

[3] = compound: CC1=C(C=C(C=C1)NC(=O)C2=CC(=CC=C2)C(C)(C)C#N)NC3=CC4=C(C=C3)N=CN(C4=O)C
How it was run: as §1

[4] = compound: CC1=C(C=C(C=C1)NC(=O)C2=CC(=CC=C2)N(C)C)NC(=O)C3=CC=C(C=C3)O
How it was run: as §1

barasertib = compound: CCN(CCCOc1ccc2c(Nc3cc(CC(=O)Nc4cccc(F)c4)[nH]n3)ncnc2c1)CCOP(=O)(O)O [barasertib]
How it was run: as §1

[5] = compound: CC[C@@H]1C(=O)N(C)c2cnc(Nc3ccc(C(=O)NC4CCN(C)CC4)cc3OC)nc2N1C1CCCC1
How it was run: as §1

[6] = compound: CCn1c(C(=O)N(C2CC2)C2CC2)cc2c3c(ncn3C)c(Nc3cc(C)n(C)n3)nc21
How it was run: as §1

[7] = compound: CCn1cc(-c2ccnc3[nH]c(-c4cccc(CN(C)C)c4)cc23)c(-c2ccc(NC(=O)N(C)C)cc2)n1
How it was run: as §1

[8] = compound: CN1CCC(CNc2ccc3ncc(-c4cccc(OC(F)(F)F)c4)n3n2)CC1
How it was run: as §1

saracatinib = compound: CN1CCN(CCOc2cc(OC3CCOCC3)c3c(Nc4c(Cl)ccc5c4OCO5)ncnc3c2)CC1 [saracatinib]
How it was run: as §1

sotrastaurin = compound: CN1CCN(c2nc(C3=C(c4c[nH]c5ccccc45)C(=O)NC3=O)c3ccccc3n2)CC1 [sotrastaurin]
How it was run: as §1

[9] = compound: CC(=O)c1cnc2ccc(-c3cc(Cl)c(O)c(Cl)c3)nc2c1N[C@H]1CC[C@H](CN(C)C)CC1
How it was run: as §1

[10] = compound: CC1=C(C(CC(=O)N1)C2=CC=C(C=C2)C(F)(F)F)C(=O)NC3=C(C=C4C(=C3)C=NN4)F
How it was run: as §1

[11] = compound: CC1=CC=C(C=C1)SC2=C3C=C(SC3=CN=C2)C(=O)N
How it was run: as §1

vemurafenib = compound: CCCS(=O)(=O)Nc1ccc(F)c(C(=O)c2c[nH]c3ncc(-c4ccc(Cl)cc4)cc23)c1F [vemurafenib]
How it was run: as §1

[12] = compound: CCCS(=O)(=O)Nc1ccc(F)c(C(=O)c2c[nH]c3ncc(Cl)cc23)c1F
How it was run: as §1

volasertib = compound: CC[C@@H]1C(=O)N(C)c2cnc(Nc3ccc(C(=O)N[C@H]4CC[C@H](N5CCN(CC6CC6)CC5)CC4)cc3OC)nc2N1C(C)C [volasertib]
How it was run: as §1

[13] = compound: CC(C)C1=C2N=C(C=C(N2N=C1)NCC3=CC=CC=C3)NCCCCCCN
How it was run: as §1

Measured: log2 fold change

GABPB2 (UniProt Q8TAK5)
inactive: ibrutinib -0.2 | ralimetinib 0.051 | [1] -0.037 | [2] 0.087 | [3] -0.016 | [4] 0.099 | barasertib 0.094 | [5] -0.177 | [6] 0.005 | [7] 0.195 | [8] -0.022 | saracatinib -0.106 | sotrastaurin 0.03

FUNDC2 (UniProt H7C0K8)
inactive: ibrutinib 0.325 | [9] -0.07 | [10] -0.068 | [11] -0.064 | vemurafenib 0.116 | [12] 0.06 | barasertib 0.129 | volasertib 0.073

GEMIN8 (UniProt Q9NWZ8)
inactive: ibrutinib 0.056 | [9] -0.001 | ralimetinib -0.063 | [1] 0.048 | [13] -0.071 | [10] -0.048 | [3] 0.006 | [4] -0.036 | [11] 0.032 | vemurafenib -0.033 | [12] 0.143 | barasertib 0.002 | [5] 0.27 | volasertib -0.038 | [6] -0.089 | [7] 0.081 | [8] -0.117 | sotrastaurin -0.001

FURIN (UniProt P09958)
inactive: ibrutinib 0.086 | ralimetinib -0.082 | [1] -0.102 | [13] 0.015 | [10] 0.162 | [2] -0.056 | [3] -0.136 | [4] 0.028 | vemurafenib 0.123 | barasertib 0.067 | [5] -0.055 | [6] 0.014 | [7] -0.051 | [8] 0.008 | saracatinib 0.08 | sotrastaurin 0.002

GALNT11 (UniProt Q8NCW6)
inactive: [9] 0.076 | ralimetinib -0.008 | [1] -0.101 | [13] 0.027 | [10] -0.036 | [2] -0.029 | [3] 0.072 | [4] -0.014 | [11] -0.072 | vemurafenib 0.009 | [12] 0.097 | [5] 0.035 | volasertib -0.055 | [6] 0.063 | [7] -0.244 | [8] 0.078 | saracatinib 0.071 | sotrastaurin -0.019

FUT11 (UniProt Q495W5)
inactive: ibrutinib -0.172 | [9] 0.001 | ralimetinib 0.003 | [1] -0.011 | [13] 0.112 | [10] -0.082 | [3] -0.12 | [4] 0.02 | [11] -0.261 | [12] -0.14 | barasertib -0.158 | [5] 0.001 | volasertib 0.17 | [6] 0.022 | [7] 0.118 | [8] -0.068 | sotrastaurin 0.062

GEMIN7 (UniProt Q9H840)
inactive: ibrutinib -0.06 | ralimetinib 0.121 | [1] -0.001 | [10] -0.01 | [3] 0.024 | [4] -0.011 | barasertib 0.304 | [6] -0.092 | [7] -0.159 | [8] 0.064 | sotrastaurin -0.097

GALNT4 (UniProt Q8N4A0)
inactive: ibrutinib 0.039 | [9] 0.113 | [2] 0.096 | [3] 0.056 | [11] 0.037 | vemurafenib -0.037 | [12] 0.025 | barasertib 0.035 | [5] 0.085 | volasertib 0.086 | [7] 0.024 | [8] -0.038 | saracatinib 0.029 | sotrastaurin 0.093

GAPVD1 (UniProt Q14C86)
inactive: ibrutinib 0.086 | [9] 0.317 | [11] -0.666 | [12] 0.116 | barasertib 0.078 | volasertib -0.305

GDAP1 (UniProt Q8TB36)
inactive: ibrutinib -0.003 | [9] -0.022 | ralimetinib 0.127 | [1] -0.157 | [13] -0.101 | [2] 0.065 | [3] -0.025 | [4] 0.079 | [11] -0.001 | vemurafenib 0.129 | [12] 0.02 | barasertib -0.057 | [5] 0.144 | volasertib 0.003 | [6] 0.112 | [7] 0.111 | [8] -0.06 | saracatinib -0.018 | sotrastaurin 0.049

GALNT3 (UniProt Q14435)
inactive: ibrutinib 0.165 | [3] -0.092 | barasertib 0.008 | [5] 0.055 | sotrastaurin 0.152

G3BP2 isoform 2 (UniProt Q9UN86)
inactive: [9] 0 | [2] -0.264 | [3] -0.027 | [11] 0.043 | [12] 0.119 | volasertib -0.097 | [7] 0.156 | [8] -0.032 | saracatinib 0.017 | sotrastaurin 0.02

GFI1B (UniProt Q5VTD9)
inactive: [9] -0.184 | ralimetinib -0.07 | [1] 0.001 | [13] -0.172 | [10] -0.189 | [2] -0.122 | [3] -0.057 | [4] 0.07 | [11] -0.104 | [12] -0.259 | volasertib 0.124 | [6] -0.07 | saracatinib 0.038 | sotrastaurin 0.282

FPGS (UniProt Q05932)
inactive: ralimetinib 0.026 | [1] 0.039 | [10] 0.039 | [2] -0.152 | [4] -0.089 | [5] 0.05 | [6] 0.027 | saracatinib 0.099

GDF15 (UniProt Q99988)
inactive: ralimetinib -0.003 | [1] 0.099 | [13] -0.002 | [10] -0.105 | [2] 0.068 | [3] 0.049 | [4] -0.027 | vemurafenib 0.034 | [6] 0.027 | [7] 0.12 | [8] -0.128 | saracatinib 0.041 | sotrastaurin 0.071

Copied from above (five entries):
GDAP1 (UniProt Q8TB36)
inactive: ibrutinib -0.003 | [9] -0.022 | ralimetinib 0.127 | [1] -0.157 | [13] -0.101 | [2] 0.065 | [3] -0.025 | [4] 0.079 | [11] -0.001 | vemurafenib 0.129 | [12] 0.02 | barasertib -0.057 | [5] 0.144 | volasertib 0.003 | [6] 0.112 | [7] 0.111 | [8] -0.06 | saracatinib -0.018 | sotrastaurin 0.049

GALNT3 (UniProt Q14435)
inactive: ibrutinib 0.165 | [3] -0.092 | barasertib 0.008 | [5] 0.055 | sotrastaurin 0.152

G3BP2 isoform 2 (UniProt Q9UN86)
inactive: [9] 0 | [2] -0.264 | [3] -0.027 | [11] 0.043 | [12] 0.119 | volasertib -0.097 | [7] 0.156 | [8] -0.032 | saracatinib 0.017 | sotrastaurin 0.02

GFI1B (UniProt Q5VTD9)
inactive: [9] -0.184 | ralimetinib -0.07 | [1] 0.001 | [13] -0.172 | [10] -0.189 | [2] -0.122 | [3] -0.057 | [4] 0.07 | [11] -0.104 | [12] -0.259 | volasertib 0.124 | [6] -0.07 | saracatinib 0.038 | sotrastaurin 0.282

FPGS (UniProt Q05932)
inactive: ralimetinib 0.026 | [1] 0.039 | [10] 0.039 | [2] -0.152 | [4] -0.089 | [5] 0.05 | [6] 0.027 | saracatinib 0.099

The list goes on:

FSCN2 isoform 2 (UniProt O14926)
inactive: [3] -0.174 | vemurafenib -0.173 | [5] -0.096 | sotrastaurin -0.011

FUOM (UniProt A2VDF0)
inactive: [9] -0.05 | ralimetinib 0.041 | [1] -0.004 | [13] 0.098 | [10] -0.069 | [2] -0.099 | [4] 0.047 | [11] -0.06 | vemurafenib 0.091 | [12] 0.001 | [5] 0.179 | volasertib 0.003 | [6] -0.027 | [7] 0.06 | [8] 0.054 | saracatinib 0.151

FUS (UniProt H3BPE7)
inactive: [2] -0.018 | saracatinib -0.108

FUNDC1 (UniProt Q8IVP5)
inactive: [9] 0.005 | ralimetinib 0.013 | [1] -0.074 | [13] 0.069 | [10] 0.105 | [2] 0.047 | [3] -0.021 | [4] 0.083 | [11] 0.005 | vemurafenib 0.134 | [12] -0.013 | [5] -0.059 | volasertib 0.085 | [6] -0.143 | [7] -0.107 | [8] 0.085 | saracatinib 0.096 | sotrastaurin -0.008
